# According to patent publication US20070155720A1, “Co-administration of dopamine-receptor binding compounds” (DarPharma, Inc., priority 2003, published 2007):
# Tested on: patients with schizophrenia
# Conditions: 6 subjects on stable atypical antipsychotics, 12 weeks, blind cross-over
compound,measurement,value
COc1cc2c(cc1OC)C(=O)C(CC1CCN(Cc3ccccc3)CC1)C2 (stereo not shown) [Donepezil],Brain activity (BOLD fMRI) compared to placebo and baseline scans,functional normalization with an increase in leftfrontal lobe and cingulate activity
